The text below walks through data of patent publication US20030087913A1 (Schering AG, priority 2001, published 2003).

The nature of data set [1]: Measurement of the active ingredient release (one-compartment method, vane-stirrer apparatus, USP XXIV). It is filed as physicochemical. Particulars: pH 6.8.

As a reminder, the solubility is the concentration that dissolves in the medium under given conditions. For the compound `C[C@@H]1CN(Cc2ccc(F)cc2)CCN1C(=O)COc1ccc(Cl)cc1NC(N)=O.O=S(=O)(O)O` [piperazine urea-hydrogen sulfate, (2R)-1-((4-chloro-2-(ureido)phenoxy)methyl)carbonyl-2-methyl-4-(4-fluorobenzyl)piperazine hydrogen sulfate], in data set [1], the “effect of addition of the surfactant SDS on the release” value is “only in a slight increase in the release”. The solubility in the data set “physchem” (pH 1, simulated gastric fluid) was roughly 5000 µg/mL; in “physchem” (pH 6.35, aqueous buffer) it was roughly 150 µg/mL; in “physchem” (pH 6.8, aqueous buffer) it was roughly 100 µg/mL.
